Some of these results come from one statement about several compounds together.
Target: T1, KCNQ2/3 potassium ion channel (Homo sapiens, UniProt O43525+O43526)
T1 construct: expressed in transfected cells; host or cells: CHO cells (hKCNQ-CHO)
Test: KCNQ2/3 potassium ion channel activation assay (whole-cell patch clamp, hKCNQ-CHO cells)
Format: cell-based
Details: test concentration 3 μM, numeric value, listed as compound a
Experimental: Example 64: KCNQ2/3 Potassium Ion Channel Activation Assay
hKCNQ-CHO cells were cultured at 37° C. in a humidified environment of 5% CO2.
• 2.1. Extracellular fluid (mM): NaCl 145, KCl 4, CaCl2 2, MgCl2 1, Glucose 10, HEPES 10. The pH value of the extracellular fluid was adjusted to 7.4 with NaOH, and the osmotic pressure was adjusted to about 295 mOsm. • 2.2. Intracellular fluid (mM (mmol/L)): KOH 31.25, KCl 120, EGTA 10, MgCl2 1.75, CaCl2 5.374, HEPES 10, Na-ATP 4. The pH value of the intracellular fluid was adjusted to 7.4 with HCl, and the osmotic pressure was adjusted to about 285 mOsm. • 2.3. The extracellular fluid should be prepared once a week, and the intracellular fluid should be stored at −20° C. after preparation.
The model positive reference compound Retigabine (RTG) was dissolved with 100% DMSO and configured as a 10 mM working solution. The test compounds were dissolved with 100% DMSO and configured as a 10 mM working solution. The final concentration of DMSO in the test solution should be less than 0.3%.
Whole-cell patch clamp was performed at room temperature. The electrical signals recorded with the EPC 10 USB amplifier (HEKA Elektronik, Germany) were filtered by a 3 kHz low-pass filter, and finally recorded in PatchMaster 2×90.5 software (HEKA Elektronik, Germany). […]

Cc1cc(N2CCCc3cc(F)ccc3C2)cc(C)c1NC(=O)CC(C)(C)C [a, reference compound]
Enhancment % (activation activity on KCNQ2/3 potassium ion channel): lower than 50%
